Reference: patent US5068337A, “1,4-dihydropyridines and their ability to inhibit blood platelet aggregation, inhibit thromboxane synthetase and phospholipase” (John Wyeth & Brother Limited, priority 1984, dated 1991)

System: thromboxane synthetase
Assay: inhibition of thromboxane production (TxB2 radio-immunoassay, rabbit platelet rich plasma)
Assay type: cell-based
Settings: Oryctolagus cuniculus, rabbit PRP, adenosine diphosphate and adrenalin, read-out: IC50 (50% inhibition of TxB2)
Experimental: The compounds of formula I were tested for their ability to inhibit thromboxane production by the following standard test:
a) Generation of thromboxanes
Blood (approx. 75 ml) is obtained from an anaesthetised rabbit and centrifuged at 200 g for 10 minutes to obtain platelet rich plasma (PRP). An aliquot of PRP is incubated for 10 minutes at 37° C. in the presence of vehicle or drug. Platelet aggregation is induced by the addition of adenosine diphosphate and adrenalin. The tubes are incubated for 3 minutes, centrifuged at 10,000 for 3 minutes and a […] aliquot of the supernatant taken for radio-immunoassay of thromboxane B2 (TxB2).
b) Radio-immunoassay of TxB2
The total incubation volume is 150μ containing 50μl of ^3 H - TxB2 (0.005 μCi), […] of sample or authentic TxB2 ranging from 5 to 300 pg per tube as standards and 50 μl of rabbit anti-sera to TxB2 (in a concentration which will bind 50% of H-TxB2) After incubation for 1 hour at room temperature the tubes are further incubated for 16-20 hours at 4° C. 1 ml of dextran-coated charcoal is then added to the tubes which are further incubated on ice for 10 minutes. […] Measurement of the radioactivity in the supernatant quantifies the amount of [^3 H]-TxB2 bound by the antibody. The concentration of unlabelled TxB2 in the sample is then determined from a linear standard curve. […]

COC(=O)C1=C(C)NC(C)=C(C(=O)OC)C1c1ccccc1[N+](=O)[O-] [nifedipine, reference compound]
IC50: > 1 mM
